PMC5751204
Results are given in words; binding and its absence hold for the method and conditions named. Binding seen in cells or lysates may run through a third protein. A result given as binding can be weak or reduced; the word gives no strength.

Experiments:
[1] = target: T1, p120-catenin (human (endogenous in HEK293T)) (UniProt O60716); assay: co-IP; 293T cells treated with ctrl/CM or 90K/CM for 16 h; lysates immunoprecipitated with anti-p120-catenin antibody; blot for E-cadherin
T1 sequence: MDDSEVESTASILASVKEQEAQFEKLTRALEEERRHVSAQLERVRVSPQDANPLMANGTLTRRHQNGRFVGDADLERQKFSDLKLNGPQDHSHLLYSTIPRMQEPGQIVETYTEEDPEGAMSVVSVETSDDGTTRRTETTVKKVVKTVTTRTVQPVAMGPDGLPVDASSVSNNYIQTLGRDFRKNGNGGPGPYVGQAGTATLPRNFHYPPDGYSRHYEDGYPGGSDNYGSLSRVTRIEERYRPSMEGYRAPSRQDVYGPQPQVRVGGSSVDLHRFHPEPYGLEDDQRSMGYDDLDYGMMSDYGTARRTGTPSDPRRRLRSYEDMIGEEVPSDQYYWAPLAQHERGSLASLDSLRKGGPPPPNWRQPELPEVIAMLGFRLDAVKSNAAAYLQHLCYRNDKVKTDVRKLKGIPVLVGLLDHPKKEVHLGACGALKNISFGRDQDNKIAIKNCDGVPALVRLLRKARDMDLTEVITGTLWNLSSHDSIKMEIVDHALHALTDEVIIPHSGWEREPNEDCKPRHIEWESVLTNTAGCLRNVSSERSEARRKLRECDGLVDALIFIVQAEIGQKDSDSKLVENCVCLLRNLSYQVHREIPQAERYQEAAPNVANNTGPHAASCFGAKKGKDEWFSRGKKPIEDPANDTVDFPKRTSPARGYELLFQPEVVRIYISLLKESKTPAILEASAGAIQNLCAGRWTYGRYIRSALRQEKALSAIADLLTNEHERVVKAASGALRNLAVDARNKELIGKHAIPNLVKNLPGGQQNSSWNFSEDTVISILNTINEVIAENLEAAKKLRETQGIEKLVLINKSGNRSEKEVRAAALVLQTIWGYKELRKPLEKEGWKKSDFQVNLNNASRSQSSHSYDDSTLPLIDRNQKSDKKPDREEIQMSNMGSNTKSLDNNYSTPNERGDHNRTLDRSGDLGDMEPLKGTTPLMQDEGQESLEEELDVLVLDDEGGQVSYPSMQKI

[2] = target: T1, p120-catenin (human (endogenous in HEK293T)); assay: co-IP; in vitro: 293T cell lysates with or without added 90K, immunoprecipitated with anti-p120-catenin antibody; blot for E-cadherin

- binding [1]: binds
- binding [2]: binds
Substance: E-cadherin (human (endogenous in HEK293T))
